Tested on: S. aureus CCUG 35601 (MRSA)
Experiment: Broth microdilution MIC/MBC
Type: cell-based
Settings: Staphylococcus aureus, 24 h
Protocol: The broth microdilution method was used to determine minimal inhibitory concentration (MIC) and minimal bactericidal concentration (MBC). Briefly, two-fold serial dilutions of the peptides were used and the final concentrations ranged between 0.097–50 µM. The final concentrations of the antibiotics vancomycin and teicoplanin ranged between 0.097–50 µg/ml, while rifampicin ranged between 0.0019–1 µg/ml and gentamicin 0.0097–5 µg/ml. The inhibitory and bactericidal effects of peptides together with antibiotics were studied by using the same concentration series of antibiotics with constant, sub-MIC concentrations, of the peptides in all the wells (see figure legends). […] MBC was determined as the lowest concentration where no growth of bacterial colonies (10 µl) was observed on blood-agar plates. All experiments were repeated at least three times. The combined effect of teicoplanin and PLNC8 αβ against S. epidermidis ATCC 12228 was evaluated by the microdilution checkerboard method. Briefly, two-fold serial dilutions of the antibiotics and PLNC8 αβ were prepared together in microtiter plates, either alone or in combination. The MIC values were determined visually and spectroscopically, and the fractional inhibitory concentration (ΣFIC) was calculated by the equation (MIC of PLNC8 αβ in combination/MIC of PLNC8 αβ alone) + (MIC of antibiotic in combination/MIC of antibiotic alone). […]

Question: `CN[C@H](CC(C)C)C(=O)N[C@H]1C(=O)N[C@@H](CC(N)=O)C(=O)N[C@H]2C(=O)N[C@H]3C(=O)N[C@H](C(=O)N[C@H](C(=O)O)c4cc(O)cc(O)c4-c4cc3ccc4O)[C@H](O)c3ccc(c(Cl)c3)Oc3cc2cc(c3O[C@@H]2O[C@H](CO)[C@@H](O)[C@H](O)[C@H]2O[C@H]2C[C@](C)(N)[C@H](O)[C@H](C)O2)Oc2ccc(cc2Cl)[C@H]1O` [Vancomycin, vancomycin] was tested. Which MIC did it give?
Answer: 1.5 µg/mL

From PMC7046733, “Plantaricin NC8 αβ exerts potent antimicrobial activity against Staphylococcus spp. and enhances the effects of antibiotics” (Scientific Reports, 2020)
